PubChem BioAssay AID1259405 | NCATS | 2018
In all, the deposit lists about 50,000 reagents; below is a random part of them. About 4,000 of them (8%) were called active. 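Mouse siRNA library applied to hamster cells; one well for each siRNA.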 Entries without a mark were called inactive. Reagents against one gene are numbered here.

Test: 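Mouse-designed siRNAs used to find CHO productivity engineering targets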 (primary screen)
Cells: Chinese hamster CHO-K1 ovary cells with stable secreted eGFP expression
Reagents: single siRNA against mouse genes, 0.8 pmol siRNA per well (2 µl of 400 nM stock)
Time to read-out: 3 days
Detection: 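Percent of the per-plate non-targeting control median for intracellular GFP per well by laser scanning cytometry and for cell viability by ATP luminescence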
Scale: GFP, % of control: higher = more GFP per well, higher productivity; viability (ATP), % of control: higher = more viable cells (more ATP)
Rule for the call: 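a knock-down is called active if GFP reaches 120% or more of non-targeting control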

| gene | reagent no. | GFP, % of control | viability (ATP), % of control |
| --- | --- | --- | --- |
| Or3a1b (olfactory receptor family 3 subfamily A member 1B) | 1 | 91.9 | 64 |
| Or3a1b (olfactory receptor family 3 subfamily A member 1B) | 2 | 117 | 124 |
| Or3a1b (olfactory receptor family 3 subfamily A member 1B) | 3 | 63.7 | 60.5 |
| Bcl2l2 (BCL2-like 2) | 1 | 57 | 74.5 |
| Bcl2l2 (BCL2-like 2) | 2 | 106 | 95.3 |
| Stk38 (serine/threonine kinase 38) | 1 | 99.3 | 95.8 |
| Stk38 (serine/threonine kinase 38) | 2 | 80.4 | 66.1 |
| Stk38 (serine/threonine kinase 38) | 3 | 94 | 64.8 |
| Gm4814 (predicted gene 4814) | 1 | 64.5 | 65.3 |
| Gm4814 (predicted gene 4814) | 2 | 79.6 | 98.1 |
| Gm4814 (predicted gene 4814) | 3 | 110 | 121 |
| Serpina3k (serine (or cysteine) peptidase inhibitor, clade A, member 3K) | 1 | 66.8 | 87 |
| Serpina3k (serine (or cysteine) peptidase inhibitor, clade A, member 3K) | 2 | 90 | 51.1 |
| Serpina3k (serine (or cysteine) peptidase inhibitor, clade A, member 3K) | 3 | 89.8 | 102 |
| Krt34 (keratin 34) | 1 | 118 | 89.1 |
| Krt34 (keratin 34) | 2 | 45.6 | 69 |
| Iah1 (isoamyl acetate-hydrolyzing esterase 1 homolog) | 1 | 92 | 74.6 |
| Iah1 (isoamyl acetate-hydrolyzing esterase 1 homolog) | 2 | 82.9 | 54.4 |
| Iah1 (isoamyl acetate-hydrolyzing esterase 1 homolog) | 3 | 79.3 | 75.3 |

A few values from the list.
For “GFP, % of control”, Or3a1b (olfactory receptor family 3 subfamily A member 1B) #3 has 63.7
Value of Stk38 (serine/threonine kinase 38) #1 in “GFP, % of control”: 99.3
Under “viability (ATP), % of control”, Krt34 (keratin 34) #1 has 89.1
For “viability (ATP), % of control”, Gm4814 (predicted gene 4814) #2 reads 98.1
Iah1 (isoamyl acetate-hydrolyzing esterase 1 homolog) #2, GFP, % of control → 82.9
For “viability (ATP), % of control”, Iah1 (isoamyl acetate-hydrolyzing esterase 1 homolog) #1 reads 74.6

Further entries follow.
| gene | reagent no. | GFP, % of control | viability (ATP), % of control |
| --- | --- | --- | --- |
| Plscr4 (phospholipid scramblase 4) | 1 | 91.8 | 95.6 |
| Plscr4 (phospholipid scramblase 4) | 2 | 131 (active) | 109 |
| Plscr4 (phospholipid scramblase 4) | 3 | 98.3 | 93.3 |
| Msto1 | 1 | 83.9 | 52.5 |
| Msto1 | 2 | 66.4 | 75.6 |
| Msto1 | 3 | 88.9 | 123 |
| Wdr6 (WD repeat domain 6) | 1 | 94.6 | 60.2 |
| Wdr6 (WD repeat domain 6) | 2 | 86.5 | 77 |
| Wdr6 (WD repeat domain 6) | 3 | 86.7 | 101 |
| Pdlim7 (PDZ and LIM domain 7) | 1 | 85.1 | 84.4 |
| Pdlim7 (PDZ and LIM domain 7) | 2 | 62.4 | 80 |
| Pdlim7 (PDZ and LIM domain 7) | 3 | 30.6 | 57.1 |
| Prss37 (serine protease 37) | 1 | 155 (active) | 136 |
| Prss37 (serine protease 37) | 2 | 65.1 | 76.8 |
| Prss37 (serine protease 37) | 3 | 58 | 95.2 |
| Tmem26 (transmembrane protein 26) | 1 | 121 (active) | 128 |
| Tmem26 (transmembrane protein 26) | 2 | 96.1 | 93 |
| Tmem26 (transmembrane protein 26) | 3 | 67 | 105 |
| Or9g8 (olfactory receptor family 9 subfamily G member 8) | 1 | 76 | 107 |
| Or9g8 (olfactory receptor family 9 subfamily G member 8) | 2 | 71.7 | 90.9 |
| Or9g8 (olfactory receptor family 9 subfamily G member 8) | 3 | 91 | 83.2 |
| Prss22 (serine protease 22) | 1 | 102 | 85 |
| Prss22 (serine protease 22) | 2 | 108 | 83 |
| Prss22 (serine protease 22) | 3 | 83 | 74.7 |
| Pcgf5 (polycomb group ring finger 5) | 1 | 66.7 | 59.8 |
| Pcgf5 (polycomb group ring finger 5) | 2 | 142 (active) | 70.7 |
| Pcgf5 (polycomb group ring finger 5) | 3 | 84 | 97.5 |
| Ormdl3 (ORM1-like 3 (S. cerevisiae)) | 1 | 102 | 38.2 |
| Ormdl3 (ORM1-like 3 (S. cerevisiae)) | 2 | 143 (active) | 82.6 |
| Ormdl3 (ORM1-like 3 (S. cerevisiae)) | 3 | 95.7 | 107 |
| Tbx21 (T-box 21) | 1 | 106 | 114 |
| Tbx21 (T-box 21) | 2 | 91.9 | 75 |
| Tbx21 (T-box 21) | 3 | 82 | 96.9 |
| A2ml1 (alpha-2-macroglobulin like 1) | 1 | 45.8 | 47.7 |
| A2ml1 (alpha-2-macroglobulin like 1) | 2 | 67.8 | 69.8 |
| A2ml1 (alpha-2-macroglobulin like 1) | 3 | 163 (active) | 137 |
| Or5ac16 (olfactory receptor family 5 subfamily AC member 16) | 1 | 77.1 | 71.3 |
| Or5ac16 (olfactory receptor family 5 subfamily AC member 16) | 2 | 54 | 72 |
| Or5ac16 (olfactory receptor family 5 subfamily AC member 16) | 3 | 70.8 | 107 |
